Data on 59 compounds can be found in PubChem BioAssay AID1273 (Columbia University Molecular Screening Center, 2008).

SMILES strings stand for the structures. This is one part of the list. These are further read-outs of the screen, such as a control signal, another cell line or another target. No call is given for them. Compounds called inactive in the main read-out are mostly missing here.

The assay can be described thus: inhibitors of insulin promoter-driven GFP, primary screen, imaging, TRM-6 cells (human fetal islet line), eGFP reporter, cell count (AID 1273;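 also: cells exposed to compound for 48 h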). The following applies: measured here: cell count, toxicity, at 2 µM, reporter expression induced with tamoxifen.
`CC1CCN(C(=O)CSc2nnc(Cc3cccn3C)n2-c2ccc(F)cc2)CC1`: the normalized cell count was 54.9%.

`COc1ccc(S(=O)(=O)c2nnn(-c3ccccc3Cl)c2N)cc1`: the normalized cell count was found to be 125%. The compound `Cc1nn(C(=O)c2ccco2)c(C)c1Br` came in with a normalized cell count of 67.9%.

As to `c1ccc(-c2nc(-c3ccncc3)no2)cc1`, the normalized cell count turned out to be 132%.

The compound `Cc1nc(CSc2nnc(C)s2)cs1` had a normalized cell count of 108%. The compound `CCn1c(-c2cccs2)nc2ccccc21` yielded a normalized cell count of 153%. On to `Cc1ccc(C(=O)CSc2nc(C)cc(C)c2C(N)=O)cc1`, for which the normalized cell count worked out at 107%. As to `O=C(Nc1ccn(Cc2ccc(Cl)cc2)n1)c1ccc2c(c1)OCO2`, the normalized cell count stood at 99.4%. `COc1cccc(Nc2nc3ccccc3n2C(C)C)c1` showed a normalized cell count of 113%.

In turn, `C=CCc1c(C)[nH]c(=O)[nH]c1=O` had a normalized cell count of 87.4%. Regarding `CCc1ccc(/C=C2/C(=O)N(CC)C(=S)N2C)s1`, the normalized cell count stood at 86.2%. In the case of `CC1=C(C(=O)N2CCCCCC2)C2(CCC(C)CC2)OC1=O` (centres undefined), the normalized cell count was determined as 192%. In the case of `Cc1ccc(OCCCCn2ccnc2)c(Cl)c1` it was 60.2%; in that of `CC(C)CCN1C(=O)c2ccc(C(=O)Nc3cccc(S(N)(=O)=O)c3)cc2C1=O`, 51.5%; in that of `COc1ccc2c3c(cccc13)NN=C2C`, 15.4%.

In turn, `CCOc1ccc(C(=O)NC2=NCCS2)cc1` had a normalized cell count of 41.7%. As to `CCC(C)(C)C(=O)Nc1ccc(OC)cc1[N+](=O)[O-]`, the normalized cell count is 0%.

For the compound `CCOc1ccc(-c2nnn(CC(=O)N3CCCC3)n2)cc1OCC`, the normalized cell count stood at 56%. In turn, `Nc1c(C(=O)Nc2ccccc2)sc2nc(-c3ccco3)ccc12` returned a normalized cell count of 52%. In the case of `CC(C)CC(=O)NCCCN1CCN(CCCNC(=O)CC(C)C)CC1` it was 114%; in that of `COc1ccc(C)cc1NC(=O)CSc1nnc(CC(=O)Nc2ccccc2C)n1C`, 50.6%; in that of `COc1cc(/C=N/NC(=O)c2ccc(-n3cccc3)cc2)ccc1O`, 79.4%.

`Cc1cnc(C(=O)OCC(=O)NCCCc2ccccc2)cn1` registered a normalized cell count of 75.3%. `N=c1sccn1CC(=O)NC(=O)NC1CCCC1` displayed a normalized cell count of 92.7%.

The compound `COC(=O)C1=C(C)NC(=S)N(C(C)=O)C1c1ccccc1` (centres undefined) registered a normalized cell count of 29.3%. As for `COc1ccc(C(=O)NC(Nc2ccccc2)C(Cl)(Cl)Cl)cc1` (centres undefined), the normalized cell count was 84%. `CC(C)(C)NC(=O)/C=C/c1cccc(C(F)(F)F)c1` yielded a normalized cell count of 149%. Regarding `Cc1onc(-c2ccccc2Cl)c1C(=O)Nc1cccc(-c2nc3ncccn3c2C)c1`, the normalized cell count stood at 118%. In the case of `COc1ccc(Oc2nnnn2-c2ccccc2)cc1` it was 116%. In the case of `Cc1cccc2sc(NNC(=O)c3ccc(S(=O)(=O)N4CCc5ccccc5C4)cc3)nc12` it was 103%. The compound `Clc1cccc(Cl)c1/C=C/c1nc2ccccc2[nH]1` returned a normalized cell count of 104%. Compound `Cn1c(N)c(C(=O)COC(=O)C2CCCN2C(=O)c2cccs2)c(=O)n(C)c1=O` (centres undefined) came in with a normalized cell count of 116%. For the compound `COc1ccc(Cl)cc1NC(=O)c1cnc2sccn2c1=O`, the normalized cell count was 53.7%.

The compound `CC(=O)NC1C(=O)SC1(C)C` (centres undefined) returned a normalized cell count of 154%. With `C=CC[N+](C)(C)C/C(Cl)=C(\Cl)c1ccccc1`, the normalized cell count stood at 15.8%.

Take `CNC(=O)CSCc1c(F)cccc1Cl`: the normalized cell count amounted to 84.2%. `Cc1cccc(CSCCNC(=O)c2ccc(CN3CCOCC3)cc2)c1` yielded a normalized cell count of 84.8%. In the case of `Cc1c(C(=O)Nc2ccc(F)cc2)oc2ccc(S(=O)(=O)N3CC(C)CC(C)C3)cc12` (centres undefined) it was 39.7%; in that of `CC(=O)c1ccc(Nc2nc(=O)c3cccnc3s2)cc1`, 111%. Compound `O=C(COC(=O)c1ccc(NS(=O)(=O)c2ccc3c(c2)OCCO3)cc1)NC1CC1` showed a normalized cell count of 91.1%. In the case of `CC[C@@H](C)[C@H](NC(=O)OC(C)(C)C)c1nnc(S(=O)(=O)Cc2cc(C)ccc2C)o1` it was 56%. `Cc1ccc(S(=O)(=O)CC(=O)Nc2ccc(Cl)cn2)cc1`: the normalized cell count came to 121%. For the compound `COC(=O)CC(NS(=O)(=O)c1cccs1)c1ccccc1Cl` (centres undefined), the normalized cell count turned out to be 155%. As to `CCCc1nc2ccccc2[nH]1`, the normalized cell count stood at 109%. `O=C(Nc1ccc2c(c1)OCCO2)N1CCOCC1` registered a normalized cell count of 98.7%. Compound `CSc1ccc(OC2CCCCC2NS(=O)(=O)c2ccc(Cl)cc2)cc1` (centres undefined) came in with a normalized cell count of 0%.

For `CC1=C(C(=O)Nc2ccc(Br)cc2)C(c2ccco2)NC(=O)N1` (centres undefined), the normalized cell count is 44%.

`Cc1nn(CCC(=O)NNC(=S)Nc2ccc([N+](=O)[O-])cc2)c(C)c1[N+](=O)[O-]`: the normalized cell count turned out to be 120%. In the case of `CCCCC1NC(C(=O)O)CS1` (centres undefined) it was 117%. `CCCNC(=O)CN1C(=O)NC(CCc2ccccc2)C1=O` (centres undefined) had a normalized cell count of 81.1%.

In the case of `COc1ccc(N2CCN(C(=O)CSc3ncnc4c3cnn4-c3ccccc3C)CC2)cc1`, the normalized cell count was 118%. `Cc1ccc2cc3c(NC(=O)c4ccco4)nn(C)c3nc2c1` registered a normalized cell count of 155%. `N#Cc1c(-n2cccc2/C=N/O)sc2c1CCCC2` had a normalized cell count of 127%. In the case of `COc1cc(C(=O)N(Cc2ccc(N(C)C)cc2)C2CCS(=O)(=O)C2)cc(OC)c1OC` (centres undefined) it was 128%. In turn, `CCc1nc(NCCN2CCOCC2)c2oc3ccccc3c2n1` returned a normalized cell count of 106%. Take `O=C(OCC(=O)N1CCCc2ccccc21)c1ccc(Cl)nc1`: the normalized cell count was 51.5%.

For the compound `Cc1c(C#N)c(O)n(C)c(=O)c1N=Nc1ccc(S(N)(=O)=O)cc1`, the normalized cell count stood at 129%. As for `COC(=O)c1cscc1NC(C)=O`, the normalized cell count is 85.8%. The compound `CC1OC23CCCCC2C(C#N)(C(=N)O3)C1(C#N)C#N` (centres undefined) registered a normalized cell count of 91.8%.
